No constants are given. Whether binding was seen depends on the method and setting. Some binding calls cover weakened binding; strength is not graded here.

We go through three molecules from patent US20240013853A1 (University of Washington, published 2024).

Assay [1] has as its target HALC2_065. Kind of assay: X-ray crystal structure; self-association of protomers.
Assay [2] addresses HALC2_065. The assay is described as follows: X-ray crystallography; self-association of protomers (homo-dimer).
Another assay addresses HALC18-6_265. The assay is described as follows: single particle cryoEM; self-association of protomers.
The target in another assay is HALC18-6_278. The assay is described as follows: negative stain EM, 2D class averages and 3D maps; self-association of protomers (hexamer).

B1: HALC2_065 (protein)
chain: SEEEKPIVIDLNKTIERDGRKVKLVRATITVDPETNTITIDIEYEGGPITKEDLLEAFKLAASKL
For B1, the binding entry in the assay with HALC2_065 [1] and with HALC2_065 [2] was “binds” each time.

B2: HALC18-6_265 (protein, not shown: small tags and cut ends)
chain: NIKIPNPKDLSELLKKLGEGLKGLPNLKTLTLTLSNIELPEDADLSPGAEGLGEGLKGLPNLETLTFTISNIKIPNPKDLSELLKKLGEGLKGLPNLKTLTLTLSNIELPEDADLSPGAEGLGEGLKGLPNLETLTFTISNIKIPNPKDLSELLKKLGEGLKGLPNLKTLTLTLSNIELPEDADLSPGAEGLGEGLKGLPNLETLTFTIS
As to B2, the binding entry in the assay with HALC18-6_265 is given as “binds”.

B3: HALC18-6_278 (protein, not shown: small tags and cut ends)
chain: GERTDNPYYIGLLLKHLGEGLKKNKKLEKLKLDLPVFTTEPNPILEEGFKLLGEGLANIESPLDLEIKILGERTDNPYYIGLLLKHLGEGLKKNKKLEKLKLDLPVFTTEPNPILEEGFKLLGEGLANIESPLDLEIKILGERTDNPYYIGLLLKHLGEGLKKNKKLEKLKLDLPVFTTEPNPILEEGFKLLGEGLANIESPLDLEIKIL
In the case of B3, the binding entry with HALC18-6_278 is reported as “binds”.
